Laboratory results published in PMC7327037.
No constants are given. Whether binding was seen depends on the method and setting. In cells and extracts the contact can be indirect. Some entries that bind do so weakly or less than the wild type. For some assays here: Tags and fused reporters may be left off the sequences shown. Blank lines part the entries; values can stand above or below the molecule they belong to.

Protein sequences, listed by entry. Tags and fused reporters are not part of them.
UniProt P42338: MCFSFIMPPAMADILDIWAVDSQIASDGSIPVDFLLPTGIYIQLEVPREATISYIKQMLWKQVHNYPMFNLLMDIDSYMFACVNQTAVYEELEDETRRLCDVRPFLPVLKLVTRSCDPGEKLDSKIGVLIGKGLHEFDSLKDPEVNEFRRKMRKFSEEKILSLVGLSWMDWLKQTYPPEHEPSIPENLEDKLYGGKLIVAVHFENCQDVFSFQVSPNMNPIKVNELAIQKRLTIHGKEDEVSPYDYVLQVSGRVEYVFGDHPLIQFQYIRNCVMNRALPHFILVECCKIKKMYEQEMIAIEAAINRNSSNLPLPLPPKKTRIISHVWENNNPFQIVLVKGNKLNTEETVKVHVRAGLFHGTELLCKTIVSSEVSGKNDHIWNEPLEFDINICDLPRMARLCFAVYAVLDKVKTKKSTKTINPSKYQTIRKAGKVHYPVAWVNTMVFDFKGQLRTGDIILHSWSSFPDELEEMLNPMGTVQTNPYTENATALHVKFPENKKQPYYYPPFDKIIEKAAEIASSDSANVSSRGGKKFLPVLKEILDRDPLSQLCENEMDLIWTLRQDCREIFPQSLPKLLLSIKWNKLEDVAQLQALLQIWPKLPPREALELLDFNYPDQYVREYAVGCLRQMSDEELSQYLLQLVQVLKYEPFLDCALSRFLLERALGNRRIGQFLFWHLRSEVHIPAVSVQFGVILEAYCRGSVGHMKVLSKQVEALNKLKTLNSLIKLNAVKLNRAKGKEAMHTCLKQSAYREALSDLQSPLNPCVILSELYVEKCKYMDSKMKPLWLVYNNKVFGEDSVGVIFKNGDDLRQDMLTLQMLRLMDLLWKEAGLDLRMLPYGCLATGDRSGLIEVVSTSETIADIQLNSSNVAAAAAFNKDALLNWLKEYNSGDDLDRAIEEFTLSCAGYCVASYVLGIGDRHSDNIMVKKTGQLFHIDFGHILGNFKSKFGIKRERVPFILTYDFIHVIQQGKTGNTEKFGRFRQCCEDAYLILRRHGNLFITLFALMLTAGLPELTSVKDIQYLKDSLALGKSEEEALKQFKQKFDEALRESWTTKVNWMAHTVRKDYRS

Legend:
[1] = molecular target: T1, FLAG-FOXM1D (Forkhead box M1 isoform D), expressed in 293FT cells (UniProt Q08050); test: co-IP; lysates/extracts of 293FT cells expressing FLAG-FOXM1D or FLAG-tagged truncated mutants (with HA-p85α plasmids for p85α); precipitated with a FLAG antibody; immunoblot with FLAG and p110β or HA antibodies
T1 sequence: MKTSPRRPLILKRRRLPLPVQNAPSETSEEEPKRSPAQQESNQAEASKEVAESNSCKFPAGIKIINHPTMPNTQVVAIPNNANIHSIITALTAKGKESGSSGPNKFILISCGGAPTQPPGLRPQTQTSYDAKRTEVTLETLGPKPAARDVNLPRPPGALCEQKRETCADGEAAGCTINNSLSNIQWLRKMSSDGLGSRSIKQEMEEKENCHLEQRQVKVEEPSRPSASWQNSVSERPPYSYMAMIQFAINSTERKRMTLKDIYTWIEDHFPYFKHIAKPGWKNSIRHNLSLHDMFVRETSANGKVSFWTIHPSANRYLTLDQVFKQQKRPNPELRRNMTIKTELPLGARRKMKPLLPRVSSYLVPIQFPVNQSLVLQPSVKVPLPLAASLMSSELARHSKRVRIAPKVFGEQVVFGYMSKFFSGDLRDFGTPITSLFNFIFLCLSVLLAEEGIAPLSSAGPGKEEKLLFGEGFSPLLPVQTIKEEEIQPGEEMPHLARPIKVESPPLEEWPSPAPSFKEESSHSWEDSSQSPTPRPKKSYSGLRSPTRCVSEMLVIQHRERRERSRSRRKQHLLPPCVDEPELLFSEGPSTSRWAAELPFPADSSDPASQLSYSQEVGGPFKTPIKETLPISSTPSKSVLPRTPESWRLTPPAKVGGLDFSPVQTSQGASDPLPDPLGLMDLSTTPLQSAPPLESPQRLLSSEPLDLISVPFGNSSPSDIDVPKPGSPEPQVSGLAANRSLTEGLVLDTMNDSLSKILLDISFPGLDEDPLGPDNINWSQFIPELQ

[2] = molecular target: T2, FOXM1D as used in the GST pull down assays (Supplementary Fig. 3b, 4c) (UniProt Q08050); test: pull-down; GST pull down (Supplementary Fig. 3b, 4c); which partner carried GST not told in the text shown
T2 sequence: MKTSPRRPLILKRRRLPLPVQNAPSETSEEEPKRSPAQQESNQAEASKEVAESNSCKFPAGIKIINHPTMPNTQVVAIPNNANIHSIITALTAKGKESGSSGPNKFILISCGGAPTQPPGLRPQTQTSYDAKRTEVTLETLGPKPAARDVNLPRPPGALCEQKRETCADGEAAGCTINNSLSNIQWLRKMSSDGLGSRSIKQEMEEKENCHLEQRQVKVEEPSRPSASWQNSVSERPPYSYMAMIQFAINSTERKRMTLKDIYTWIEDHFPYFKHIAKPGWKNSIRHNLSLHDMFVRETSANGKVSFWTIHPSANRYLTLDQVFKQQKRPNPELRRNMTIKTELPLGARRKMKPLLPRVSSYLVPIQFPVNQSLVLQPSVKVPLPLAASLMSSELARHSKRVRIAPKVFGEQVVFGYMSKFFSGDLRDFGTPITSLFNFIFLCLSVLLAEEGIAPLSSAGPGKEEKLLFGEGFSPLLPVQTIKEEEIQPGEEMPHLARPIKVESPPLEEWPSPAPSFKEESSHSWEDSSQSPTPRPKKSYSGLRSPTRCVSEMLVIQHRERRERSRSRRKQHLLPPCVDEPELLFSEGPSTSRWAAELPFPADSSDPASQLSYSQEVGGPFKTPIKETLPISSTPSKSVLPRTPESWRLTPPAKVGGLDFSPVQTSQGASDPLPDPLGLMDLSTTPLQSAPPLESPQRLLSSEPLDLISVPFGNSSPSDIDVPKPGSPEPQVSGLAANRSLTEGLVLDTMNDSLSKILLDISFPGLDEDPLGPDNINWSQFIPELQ

[3] = molecular target: T3, FOXM1D as used in the co-IP and reverse/reciprocal co-IP assays (Fig. 1b, f, g; Supplementary Fig. 3a) (UniProt Q08050); test: co-IP; co-IP and reverse (reciprocal) co-IP (Fig. 1b, f, g; Supplementary Fig. 3a); cells, tags and antibodies not told in the text shown
T3 sequence: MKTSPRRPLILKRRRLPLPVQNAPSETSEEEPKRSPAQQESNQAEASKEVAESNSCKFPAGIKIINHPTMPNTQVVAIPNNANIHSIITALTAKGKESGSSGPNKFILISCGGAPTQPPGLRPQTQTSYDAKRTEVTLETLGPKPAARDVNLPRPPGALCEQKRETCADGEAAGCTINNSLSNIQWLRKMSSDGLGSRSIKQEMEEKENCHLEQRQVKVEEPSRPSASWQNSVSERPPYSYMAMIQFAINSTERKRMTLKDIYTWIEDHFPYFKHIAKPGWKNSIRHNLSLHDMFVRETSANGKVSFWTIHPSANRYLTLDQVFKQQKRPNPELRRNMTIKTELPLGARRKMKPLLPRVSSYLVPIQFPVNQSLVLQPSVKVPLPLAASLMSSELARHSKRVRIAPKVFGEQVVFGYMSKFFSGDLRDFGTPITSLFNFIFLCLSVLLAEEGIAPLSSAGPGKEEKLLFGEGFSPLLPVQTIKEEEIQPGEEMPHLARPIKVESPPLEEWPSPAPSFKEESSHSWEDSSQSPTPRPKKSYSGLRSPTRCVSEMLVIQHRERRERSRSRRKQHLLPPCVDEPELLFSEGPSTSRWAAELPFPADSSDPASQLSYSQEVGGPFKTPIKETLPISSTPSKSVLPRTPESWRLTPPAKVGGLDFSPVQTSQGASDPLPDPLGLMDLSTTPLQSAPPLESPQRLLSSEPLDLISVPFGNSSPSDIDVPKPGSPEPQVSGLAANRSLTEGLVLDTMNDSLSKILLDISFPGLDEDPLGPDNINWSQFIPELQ

[4] = molecular target: p110β as used in the co-IP (Fig. 1b) and reverse co-IP (Supplementary Fig. 3a) assays (UniProt P42338); test: as above

binding [1]: binds
Molecule: p110β in 293FT cell lysates (detected with a p110β antibody, Fig. 1e) (from UniProt P42338 1-1070)

binding [2]: binds
Molecule: p110β as used in the GST pull down assay (Supplementary Fig. 3b) (from UniProt P42338 1-1070)

binding [3]: binds
Molecule: p110β as used in the co-IP (Fig. 1b) and reverse co-IP (Supplementary Fig. 3a) assays (from UniProt P42338 1-1070)

binding [4]: binds
B1: FOXM1D as used in the co-IP and reverse/reciprocal co-IP assays (Fig. 1b, f, g; Supplementary Fig. 3a) (protein, UniProt Q08050-4 1-786)
chain: MKTSPRRPLILKRRRLPLPVQNAPSETSEEEPKRSPAQQESNQAEASKEVAESNSCKFPAGIKIINHPTMPNTQVVAIPNNANIHSIITALTAKGKESGSSGPNKFILISCGGAPTQPPGLRPQTQTSYDAKRTEVTLETLGPKPAARDVNLPRPPGALCEQKRETCADGEAAGCTINNSLSNIQWLRKMSSDGLGSRSIKQEMEEKENCHLEQRQVKVEEPSRPSASWQNSVSERPPYSYMAMIQFAINSTERKRMTLKDIYTWIEDHFPYFKHIAKPGWKNSIRHNLSLHDMFVRETSANGKVSFWTIHPSANRYLTLDQVFKQQKRPNPELRRNMTIKTELPLGARRKMKPLLPRVSSYLVPIQFPVNQSLVLQPSVKVPLPLAASLMSSELARHSKRVRIAPKVFGEQVVFGYMSKFFSGDLRDFGTPITSLFNFIFLCLSVLLAEEGIAPLSSAGPGKEEKLLFGEGFSPLLPVQTIKEEEIQPGEEMPHLARPIKVESPPLEEWPSPAPSFKEESSHSWEDSSQSPTPRPKKSYSGLRSPTRCVSEMLVIQHRERRERSRSRRKQHLLPPCVDEPELLFSEGPSTSRWAAELPFPADSSDPASQLSYSQEVGGPFKTPIKETLPISSTPSKSVLPRTPESWRLTPPAKVGGLDFSPVQTSQGASDPLPDPLGLMDLSTTPLQSAPPLESPQRLLSSEPLDLISVPFGNSSPSDIDVPKPGSPEPQVSGLAANRSLTEGLVLDTMNDSLSKILLDISFPGLDEDPLGPDNINWSQFIPELQ

binding [3]: binds
B2: p110δ as used in the co-IP assay of Fig. 1b (protein, UniProt O00329 1-1044)
chain: MPPGVDCPMEFWTKEENQSVVVDFLLPTGVYLNFPVSRNANLSTIKQLLWHRAQYEPLFHMLSGPEAYVFTCINQTAEQQELEDEQRRLCDVQPFLPVLRLVAREGDRVKKLINSQISLLIGKGLHEFDSLCDPEVNDFRAKMCQFCEEAAARRQQLGWEAWLQYSFPLQLEPSAQTWGPGTLRLPNRALLVNVKFEGSEESFTFQVSTKDVPLALMACALRKKATVFRQPLVEQPEDYTLQVNGRHEYLYGSYPLCQFQYICSCLHSGLTPHLTMVHSSSILAMRDEQSNPAPQVQKPRAKPPPIPAKKPSSVSLWSLEQPFRIELIQGSKVNADERMKLVVQAGLFHGNEMLCKTVSSSEVSVCSEPVWKQRLEFDINICDLPRMARLCFALYAVIEKAKKARSTKKKSKKADCPIAWANLMLFDYKDQLKTGERCLYMWPSVPDEKGELLNPTGTVRSNPNTDSAAALLICLPEVAPHPVYYPALEKILELGRHSECVHVTEEEQLQLREILERRGSGELYEHEKDLVWKLRHEVQEHFPEALARLLLVTKWNKHEDVAQMLYLLCSWPELPVLSALELLDFSFPDCHVGSFAIKSLRKLTDDELFQYLLQLVQVLKYESYLDCELTKFLLDRALANRKIGHFLFWHLRSEMHVPSVALRFGLILEAYCRGSTHHMKVLMKQGEALSKLKALNDFVKLSSQKTPKPQTKELMHLCMRQEAYLEALSHLQSPLDPSTLLAEVCVEQCTFMDSKMKPLWIMYSNEEAGSGGSVGIIFKNGDDLRQDMLTLQMIQLMDVLWKQEGLDLRMTPYGCLPTGDRTGLIEVVLRSDTIANIQLNKSNMAATAAFNKDALLNWLKSKNPGEALDRAIEEFTLSCAGYCVATYVLGIGDRHSDNIMIRESGQLFHIDFGHFLGNFKTKFGINRERVPFILTYDFVHVIQQGKTNNSEKFERFRGYCERAYTILRRHGLLFLHLFALMRAAGLPELSCSKDIQYLKDSLALGKTEEEALKHFRVKFNEALRESWKTKVNWLAHNVSKDNRQ
